PubChem BioAssay AID540303 (National Center for Advancing Translational Sciences (NCATS), 2011)
Among all 330,000 compounds or so, about 1,000 (0.3%) were called active. Inconclusive results, whose numbers are uncertain, are shown with a selection of clear calls. The call rests on the fitted dose curve; in most records, active means well fitted inhibition curve with a large enough effect; inconclusive means small, poorly fitted or top-dose-only effect; inactive means no such curve, though single readings can be large or run the other way; tested in mouse RAW 264.7 cells. Potencies of inconclusive entries are doubtful fits and often do not repeat.
Potency means the concentration at half of the fitted maximal effect.

Experiment: qHTS for Inhibitors of Cell Surface uPA Generation; further: nearly all actives have a fitted effect of over 55% in size
Conditions: cell surface uPA generation assay; series mostly up to 38.3 µM
Outline: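 ATP-Lite luminescence in RAW 264.7 cells after 24 h of exposure to compound, tested up to 38.3 uM final in 1:5 steps. Raised ATP reflects inhibition of uPA-dependent LF delivery to the cytoplasm.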
In the case of `O=C(c1ccc(CSc2nc3ccncc3[nH]2)cc1)N1CCN(c2cccc(Cl)c2)CC1`, the Potency was inconclusive: 11200 nM [inhibitor, single point]. In the case of `COc1cc(-c2noc(C)c2/C=C/c2ccc(N)cc2)cc(OC)c1OC`, the Potency was inconclusive: 708 nM [inhibitor, full curve, poor fit]. In the case of `Cc1cccc(S(=O)(=O)Nc2ccc(S(=O)(=O)Nc3nccs3)cc2)c1`, the Potency was inconclusive: 7.9 nM [inhibitor, full curve, poor fit]. For `CCN(C(=O)CSc1nc2cc(C(=O)O)ccc2c(=O)n1-c1ccccc1F)C1CCS(=O)(=O)C1` (centres undefined), the Potency was “inactive”. For `Cc1ccc(NC(=O)Cc2cc(C(=O)O)c3ccccc3n2)c(C)c1`, the Potency was inconclusive: 28200 nM [inhibitor, single point]. In the case of `CCOC(=O)CSCc1csc(CC(=O)Nc2ccccc2C)n1`, the Potency was “inactive”. In the case of `C/C(Cn1cnc([N+](=O)[O-])n1)=N/NC(=O)COc1c(Cl)cc(Cl)cc1Cl`, the Potency was inconclusive: 2240 nM [inhibitor, full curve, poor fit]. For `COc1cc(CN2CCN(C(c3ccccc3)c3ccccc3)CC2)cc(OC)c1OC`, the Potency was “inactive”. For `O=C1CCC/C=C/C[C@H](CC(=O)N(CCO)Cc2ccccc2)C(=O)N[C@@H](Cc2ccccc2)CO1`, the Potency was “inactive”. In the case of `Cc1ccc2sc(N(CCN(C)C)C(=O)/C=C/c3cccs3)nc2c1C`, the Potency was inconclusive: 1120 nM [inhibitor, partial curve, poor fit]. With `CC(=O)NCCOc1ccc(C(=O)O)cc1` the Potency was “inactive”. For `COC(=O)Nc1nc2ccc(SC(C)C)cc2[nH]1`, the Potency was inconclusive: 22.4 nM [inhibitor, full curve, poor fit]. With `COc1cc(OC)c(NS(=O)(=O)c2ccc3c(c2)NC(=O)CO3)cc1Cl` the Potency was inconclusive: 3160 nM [inhibitor, partial curve, poor fit]. For `COc1ccc(CN(C)C(=O)Cn2cnc3c(SC)nc(N)nc32)cc1OC`, the Potency was inconclusive: 14100 nM [inhibitor, partial curve, poor fit]. In the case of `O=C(CSc1nnc(COc2ccccc2Cl)o1)Nc1ccccc1`, the Potency was inconclusive: 12600 nM [inhibitor, partial curve, poor fit]. In the case of `Cc1ccc(Cl)c(Nc2ccccc2C(=O)O)c1Cl`, the Potency was “inactive”. In the case of `CN(C)c1ccc(/C=C/C(=O)c2ccccc2O)cc1`, the Potency was inconclusive: 2000 nM [inhibitor, single point]. In the case of `CC1CN(Cc2ccccc2)C(=S)NC1=O` (centres undefined), the Potency was “inactive”. With `Cc1ccc(C(=O)N2CCCCC2)cc1NC1=C(Cl)C(=O)N(Cc2ccccc2)C1=O` the Potency was inconclusive: 12600 nM [inhibitor, single point].
